# Laboratory results taken from publication doi:10.1101/2023.11.29.568318.
# Sequences of proteins named here, by UniProt entry; tags and fusion partners are left off. Residues count along the entry.
# UniProt P05067, residues 672-713: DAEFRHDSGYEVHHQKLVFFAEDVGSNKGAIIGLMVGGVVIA
# UniProt P51910, residues 21-189: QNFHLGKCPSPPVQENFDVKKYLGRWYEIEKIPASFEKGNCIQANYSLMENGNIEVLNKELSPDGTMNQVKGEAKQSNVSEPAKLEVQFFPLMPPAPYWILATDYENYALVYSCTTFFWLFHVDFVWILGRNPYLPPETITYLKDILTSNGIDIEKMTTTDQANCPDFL
# UniProt Q8R066, residues 17-326: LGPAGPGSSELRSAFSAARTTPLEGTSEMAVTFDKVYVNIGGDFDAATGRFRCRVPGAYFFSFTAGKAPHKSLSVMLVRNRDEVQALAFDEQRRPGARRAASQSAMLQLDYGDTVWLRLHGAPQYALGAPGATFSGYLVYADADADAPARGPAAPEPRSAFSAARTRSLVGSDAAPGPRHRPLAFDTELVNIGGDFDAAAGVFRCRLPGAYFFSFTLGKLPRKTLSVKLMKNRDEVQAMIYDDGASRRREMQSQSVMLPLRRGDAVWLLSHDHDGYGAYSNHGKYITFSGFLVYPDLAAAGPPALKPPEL
# UniProt Q9R118, residues 23-480: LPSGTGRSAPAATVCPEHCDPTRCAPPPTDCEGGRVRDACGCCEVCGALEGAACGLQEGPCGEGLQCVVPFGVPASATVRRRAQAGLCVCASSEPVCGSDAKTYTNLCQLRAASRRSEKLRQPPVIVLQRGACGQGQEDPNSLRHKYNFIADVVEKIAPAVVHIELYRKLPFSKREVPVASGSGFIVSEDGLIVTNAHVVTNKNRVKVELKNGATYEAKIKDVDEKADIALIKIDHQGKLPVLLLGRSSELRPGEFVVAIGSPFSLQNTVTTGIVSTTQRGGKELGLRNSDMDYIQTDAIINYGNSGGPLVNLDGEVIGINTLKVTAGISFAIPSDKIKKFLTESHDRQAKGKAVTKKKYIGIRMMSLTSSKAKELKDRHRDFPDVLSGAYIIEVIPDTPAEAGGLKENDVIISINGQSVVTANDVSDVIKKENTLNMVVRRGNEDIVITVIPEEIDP
# These are yes or no findings as the source states them, for the method shown. In cells and extracts the contact can be indirect. Some results given as binding are weak or reduced against the parent protein; the word gives no strength.
# Target: amyloid beta 1-42 fibrils (human) (UniProt P05067)
# Test: co-sedimentation
row,binding,Substance
1,binds,ApoD (from UniProt P51910 21-189)
2,binds,C1qTnf4 (from UniProt Q8R066 17-326)
3,binds,Htra1 (from UniProt Q9R118 23-480)
